The target in this test is ArdC mutant E229A (plasmid R388 (IncW)). The test is described as follows: affinity purification with mass spectrometry; purified ArdC E229A used to co-purify proteins from P. putida KT2440 cell lysate by pull-down; the co-eluted band was cut from the gel and identified by mass spectrometry (trypsin, MASCOT); only the target purified.

These are yes or no findings as the source states them, for the method shown. In cells and extracts the contact can be indirect. Here binding means that the protein was enriched with, or labelled near, the bait; the list need not be complete.

B1: PP_0941 (protein, UniProt Q88PA9 1-173)
chain: MVDSNDDAFDGEKSKTQIKRELHALVELGERLTTLKADTLARLPLTDELRKALAEASKHTAHGARKRHMSFVGKLMRVQDLDAIHALLEQMDSSTRQYNERFHSLERWRDRLIDGNDEDLERFVNEYPDTDRQQLRSLVRHAQHEKARNKPPAAARKVFKYIRDLDELQRGLR
B1: the binding result is “binds”.

Values taken from article PMC7213743, “ArdC, a ssDNA-binding protein with a metalloprotease domain, overpasses the recipient hsdRMS restriction system broadening conjugation host range”.
